Measurements reported in PubChem BioAssay AID1224826 (NIAID, 2016)
The whole screen tested about 17,000 reagents; shown is a random part of them. Of all reagents, about 1,110 (6.6%) got an active call. 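Active means lowered or raised reporter signal; replicate intensities are raw and not normalised per plate.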 A number with no mark means an inactive call. The numbers tell different reagents against one gene apart.

Screen: 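Genes that change LPS-induced Tnf promoter activity in mouse macrophages when knocked down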 (primary screen)
Cell system: RAW264.7 G9 macrophages from mouse bearing reporters for p65 (GFP) and the Tnf promoter (mCherry)
Reagents: siRNA pool against mouse genes, 100 nM
Timing: 16 h of LPS stimulation, after 2 days of siRNA transfection
Treatment: bacterial lipopolysaccharide (Salmonella minnesota R595), 10 ng/ml
Measurement: 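Nuclear mCherry signal of the Tnf promoter reporter measured by imaging after background removal, scaled to each plate median and turned into robust z-scores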
Direction: Tnf reporter robust z-score: higher = stronger Tnf promoter reporter signal after LPS; Tnf reporter intensity: higher = stronger Tnf promoter reporter signal
Rule for the call: 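Called active when robust z-score is at most -1.3, matching the median of the Tlr4 knock-down control, or over 3; control wells and wells with under 50 cells never active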
Meaning of the calls: active = Tnf reporter clearly lowered or raised; inactive = no clear change in Tnf reporter

gene knocked down | pool no. | Tnf reporter robust z-score | fewer than 50 cells in well | Tnf reporter intensity, replicate 1 | Tnf reporter intensity, replicate 2
Rpl4 | 1 | – | fewer than 50 cells per well; well left out of calls | 55.4 | 49.4
Cnbp | 1 | -0.99 | enough cells in well | 200 | 105
Fezf2 | 1 | 2.25 | enough cells in well | 209 | 231
Crat | 1 | 1.01 | enough cells in well | 301 | 286
Cd59b | 1 | -1.2 | enough cells in well | 164 | 107
Ap4b1 | 1 | -0.84 | enough cells in well | 146 | 95.8
Ap4b1 | 2 | 0.04 | enough cells in well | 134 | 62.8
Rangap1 | 1 | 0.45 | enough cells in well | 369 | 228
Senp8 | 1 | -0.54 | enough cells in well | 76.1 | 90.1
H2-Q7 | 1 | 0.69 | enough cells in well | 276 | 248
Foxa3 | 1 | 0.19 | enough cells in well | 308 | 219
Rhox11 | 1 | 0.13 | enough cells in well | 120 | 165
Cep120 | 1 | 0.78 | enough cells in well | 259 | 166
Or5al6 | 1 | 0.91 | enough cells in well | 228 | 210
Syn2 | 1 | 6.74 (active) | enough cells in well | 355 | 331
Mixl1 | 1 | 0.76 | enough cells in well | 374 | 223
A930033H14Rik | 1 | 3.18 (active) | enough cells in well | 286 | 393
Klf15 | 1 | -0.73 | enough cells in well | 191 | 106
Gstp3 | 1 | 1.82 | enough cells in well | 358 | 306
Ttr | 1 | 0.01 | enough cells in well | 206 | 260
Acsm3 | 1 | -0.2 | enough cells in well | 281 | 196
Cox5a | 1 | 0.45 | enough cells in well | 245 | 169
Etnk2 | 1 | – | fewer than 50 cells per well; well left out of calls | 105 | 85.9
Chd4 | 1 | -1.29 | enough cells in well | 150 | 106
Zfand1 | 1 | – | fewer than 50 cells per well; well left out of calls | 78.8 | 44.7
Fbp2 | 1 | 0.37 | enough cells in well | 276 | 238
C1qc | 1 | 1.72 | enough cells in well | 228 | 258
Mrgprx3-ps | 1 | -0.97 | enough cells in well | 132 | 221
Cpeb1 | 1 | 2.38 | enough cells in well | 343 | 307
Smu1 | 1 | – | fewer than 50 cells per well; well left out of calls | 58.7 | 33.9
Rbm15 | 1 | 0.1 | enough cells in well | 350 | 192
Tex47 | 1 | 0.91 | enough cells in well | 221 | 90.5
Ralgapa1 | 1 | -1.43 (active) | enough cells in well | 123 | 73.9
Chlsn | 1 | – | fewer than 50 cells per well; well left out of calls | 103 | 58.5
Ggn | 1 | -1.51 (active) | enough cells in well | 121 | 64.7
Flrt3 | 1 | 0.49 | enough cells in well | 284 | 162
Gclm | 1 | -0.22 | enough cells in well | 206 | 142
Flrt2 | 1 | 0.71 | enough cells in well | 299 | 174
Mob3b | 1 | 5.3 (active) | enough cells in well | 476 | 382
Add3 | 1 | -0.49 | enough cells in well | 119 | 166
Hdhd2 | 1 | 1.74 | enough cells in well | 252 | 249
Or5ak24 | 1 | -0.19 | enough cells in well | 152 | 111
Slc6a9 | 1 | – | fewer than 50 cells per well; well left out of calls | 92.6 | 60.7
Spred1 | 1 | 1.98 | enough cells in well | 198 | 137
Gipc1 | 1 | -1.35 (active) | enough cells in well | 171 | 59.4
Myocd | 1 | -1.49 (active) | enough cells in well | 130 | 103
Or8b48 | 1 | 1.97 | enough cells in well | 273 | 195
Niban1 | 1 | 0.84 | enough cells in well | 254 | 182
Tns1 | 1 | -1.32 (active) | enough cells in well | 110 | 59.8
Gabra1 | 1 | 1.14 | enough cells in well | 307 | 371
Ccm2l | 1 | 0.63 | enough cells in well | 255 | 246
Dnajb13 | 1 | 1.32 | enough cells in well | 322 | 116
Chst5 | 1 | 0.26 | enough cells in well | 287 | 208
Ms4a5 | 1 | 0.5 | enough cells in well | 219 | 150
Acbd4 | 1 | 2.07 | enough cells in well | 398 | 272
Dpp3 | 1 | -0.47 | enough cells in well | 206 | 162
3110009E18Rik | 1 | – | fewer than 50 cells per well; well left out of calls | 211 | 120
Cyp8b1 | 1 | -1.81 (active) | enough cells in well | 76.5 | 64.1

Entries listed above called active:
gene knocked down | pool no. | Tnf reporter robust z-score | fewer than 50 cells in well | Tnf reporter intensity, replicate 1 | Tnf reporter intensity, replicate 2
Syn2 | 1 | 6.74 (active) | enough cells in well | 355 | 331
A930033H14Rik | 1 | 3.18 (active) | enough cells in well | 286 | 393
Ralgapa1 | 1 | -1.43 (active) | enough cells in well | 123 | 73.9
Ggn | 1 | -1.51 (active) | enough cells in well | 121 | 64.7
Mob3b | 1 | 5.3 (active) | enough cells in well | 476 | 382
Gipc1 | 1 | -1.35 (active) | enough cells in well | 171 | 59.4
Myocd | 1 | -1.49 (active) | enough cells in well | 130 | 103
Tns1 | 1 | -1.32 (active) | enough cells in well | 110 | 59.8
Cyp8b1 | 1 | -1.81 (active) | enough cells in well | 76.5 | 64.1
